Results reported in patent US7585941B2 (priority 2004, dated 2009).
Some of these results come from one statement about several compounds together.

System: hMOR-1 variants
Settings: cAMP inhibition, among human variants

In the case of C[C@@H](NC(=O)[C@@H](N)Cc1ccc(O)cc1)C(=O)NCC(=O)N(C)[C@@H](Cc1ccccc1)C(=O)NCCO [DAMGO, [D-Ala^2,MePhe^4,Gly(ol)^5]enkephalin], the “variation of IC50 values among the variants” value is reported as 3- to 23 fold.
